Reference: article PMC4809290
Results are given in words; binding and its absence hold for the method and conditions named. A result given as binding can be weak or reduced; the word gives no strength. Tags and fused reporters may be left off the sequences shown. For part of these data: Binding seen in cells or lysates may run through a third protein.

T1: TOPLESS (TPL), yeast two-hybrid fusion (Arabidopsis thaliana (accession Col-0)) (UniProt Q94AI7)
T1 sequence: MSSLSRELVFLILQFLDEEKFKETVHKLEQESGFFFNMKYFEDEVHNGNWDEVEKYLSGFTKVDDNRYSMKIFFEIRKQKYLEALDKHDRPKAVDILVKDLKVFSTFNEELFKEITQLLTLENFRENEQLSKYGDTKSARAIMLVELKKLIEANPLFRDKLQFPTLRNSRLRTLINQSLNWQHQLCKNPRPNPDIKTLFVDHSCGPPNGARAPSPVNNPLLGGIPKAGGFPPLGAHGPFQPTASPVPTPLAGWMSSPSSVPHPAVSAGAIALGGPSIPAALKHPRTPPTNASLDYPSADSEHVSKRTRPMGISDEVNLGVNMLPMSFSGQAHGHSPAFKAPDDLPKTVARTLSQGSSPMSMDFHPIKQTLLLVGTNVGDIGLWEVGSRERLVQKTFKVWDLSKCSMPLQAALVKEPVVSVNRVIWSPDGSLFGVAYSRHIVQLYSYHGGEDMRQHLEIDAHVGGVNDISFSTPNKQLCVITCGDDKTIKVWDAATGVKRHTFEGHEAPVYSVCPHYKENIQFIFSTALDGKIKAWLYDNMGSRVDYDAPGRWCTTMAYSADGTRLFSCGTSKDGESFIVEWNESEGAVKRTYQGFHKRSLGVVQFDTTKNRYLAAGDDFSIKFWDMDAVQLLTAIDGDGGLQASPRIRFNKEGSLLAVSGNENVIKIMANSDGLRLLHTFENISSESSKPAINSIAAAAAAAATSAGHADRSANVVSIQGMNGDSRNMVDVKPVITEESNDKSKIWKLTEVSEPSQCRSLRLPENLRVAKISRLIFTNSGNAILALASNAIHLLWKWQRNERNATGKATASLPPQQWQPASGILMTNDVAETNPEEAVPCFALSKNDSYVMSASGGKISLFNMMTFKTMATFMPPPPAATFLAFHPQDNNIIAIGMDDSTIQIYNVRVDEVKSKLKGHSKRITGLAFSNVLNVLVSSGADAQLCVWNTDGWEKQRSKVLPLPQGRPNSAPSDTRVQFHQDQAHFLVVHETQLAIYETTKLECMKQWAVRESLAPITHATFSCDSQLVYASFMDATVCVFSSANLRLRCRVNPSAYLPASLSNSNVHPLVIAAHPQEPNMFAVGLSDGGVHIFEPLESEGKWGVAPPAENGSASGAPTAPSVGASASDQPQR


What was measured:
[1] = biological target: T1, TOPLESS (TPL), yeast two-hybrid fusion (Arabidopsis thaliana (accession Col-0)); assay: two-hybrid; Clontech Matchmaker system, yeast strain AH109; vectors derived from pGADT7 and pGBKT7; selective SD-Leu-Trp-His or SD-Leu-Trp-His-Ade media
[2] = biological target: JAZ5 with C-terminal YFP tag (Arabidopsis thaliana (accession Col-0)); assay: co-IP; transient expression in N. benthamiana leaves, harvested 2 d post-inoculation; total protein extracts incubated with GFP-affinity matrix (Chromotek); immunoblots with anti-GFP and anti-c-Myc
[3] = biological target: JAZ7 with C-terminal YFP tag (Arabidopsis thaliana (accession Col-0)); assay: as above
[4] = biological target: bHLH017/JA-ASSOCIATED MYC2-LIKE 1 (JAM1), yeast two-hybrid fusion (Arabidopsis thaliana (accession Col-0)); assay: two-hybrid; Clontech Matchmaker system, yeast strain AH109; vectors derived from pGADT7 and pGBKT7; selective SD-Leu-Trp-His or SD-Leu-Trp-His-Ade media

binding [1] | Molecule | also measured
binds | JAZ5, yeast two-hybrid fusion (Arabidopsis thaliana (accession Col-0)) | –
binds | JAZ7 (JASMONATE ZIM-domain protein 7), yeast two-hybrid fusion (Arabidopsis thaliana (accession Col-0)) | –
no binding | JAZ7mEAR (JAZ7 with a mutated EAR motif), yeast two-hybrid fusion (Arabidopsis thaliana (accession Col-0)) | –
– | TOPLESS (TPL) with C-terminal 4xMyc tag (protein, UniProt Q94AI7 1-1131) MSSLSRELVFLILQFLDEEKFKETVHKLEQESGFFFNMKYFEDEVHNGNWDEVEKYLSGFTKVDDNRYSMKIFFEIRKQKYLEALDKHDRPKAVDILVKDLKVFSTFNEELFKEITQLLTLENFRENEQLSKYGDTKSARAIMLVELKKLIEANPLFRDKLQFPTLRNSRLRTLINQSLNWQHQLCKNPRPNPDIKTLFVDHSCGPPNGARAPSPVNNPLLGGIPKAGGFPPLGAHGPFQPTASPVPTPLAGWMSSPSSVPHPAVSAGAIALGGPSIPAALKHPRTPPTNASLDYPSADSEHVSKRTRPMGISDEVNLGVNMLPMSFSGQAHGHSPAFKAPDDLPKTVARTLSQGSSPMSMDFHPIKQTLLLVGTNVGDIGLWEVGSRERLVQKTFKVWDLSKCSMPLQAALVKEPVVSVNRVIWSPDGSLFGVAYSRHIVQLYSYHGGEDMRQHLEIDAHVGGVNDISFSTPNKQLCVITCGDDKTIKVWDAATGVKRHTFEGHEAPVYSVCPHYKENIQFIFSTALDGKIKAWLYDNMGSRVDYDAPGRWCTTMAYSADGTRLFSCGTSKDGESFIVEWNESEGAVKRTYQGFHKRSLGVVQFDTTKNRYLAAGDDFSIKFWDMDAVQLLTAIDGDGGLQASPRIRFNKEGSLLAVSGNENVIKIMANSDGLRLLHTFENISSESSKPAINSIAAAAAAAATSAGHADRSANVVSIQGMNGDSRNMVDVKPVITEESNDKSKIWKLTEVSEPSQCRSLRLPENLRVAKISRLIFTNSGNAILALASNAIHLLWKWQRNERNATGKATASLPPQQWQPASGILMTNDVAETNPEEAVPCFALSKNDSYVMSASGGKISLFNMMTFKTMATFMPPPPAATFLAFHPQDNNIIAIGMDDSTIQIYNVRVDEVKSKLKGHSKRITGLAFSNVLNVLVSSGADAQLCVWNTDGWEKQRSKVLPLPQGRPNSAPSDTRVQFHQDQAHFLVVHETQLAIYETTKLECMKQWAVRESLAPITHATFSCDSQLVYASFMDATVCVFSSANLRLRCRVNPSAYLPASLSNSNVHPLVIAAHPQEPNMFAVGLSDGGVHIFEPLESEGKWGVAPPAENGSASGAPTAPSVGASASDQPQR | binding [2]: binds; binding [3]: binds
– | JAZ8, yeast two-hybrid fusion (protein, UniProt Q8LBM2 1-131) MKLQQNCDLELRLFPTSYDSDSSDTTSVVESTSSGNPQPNEESQRITIFYNGKMCFSSDVTHLQARSIISIASREMKTKSSSNGSDPPNKSTSFHHNQLPNPKASMKKSLQSFLQKRKIRIQATSPYHSRR | binding [4]: binds
